At least one compound was matched to its structure with a doubt left.
Test system: cartilage cell cultures
Experiment: In vitro cartilage cell culture system to study rescue of degrading cartilage (retinoic acid induced degradation)
Assay type: cell-based, chick
Settings: 1 μM retinoic acid only, 18 hours, vs control cultures not treated with retinoic acid; FIGS. 5 and 6

**Q.** `CC1=C(/C=C/C(C)=C/C=C/C(C)=C/C(=O)O)C(C)(C)CCC1` [retinoic acid] was tested. Which degradation of cartilage did it give?
**A.** induces substantial degradation of cartilage
